Reference: publication PMC10577563
Results are given in words; binding and its absence hold for the method and conditions named. In cells and extracts the contact can be indirect. Some results given as binding are weak or reduced against the parent protein; the word gives no strength. For part of these data: Where a sequence is shown, tags or fusion partners need not be part of it.

Amino acid sequences for entries named in this document (tags omitted).
UniProt P30086: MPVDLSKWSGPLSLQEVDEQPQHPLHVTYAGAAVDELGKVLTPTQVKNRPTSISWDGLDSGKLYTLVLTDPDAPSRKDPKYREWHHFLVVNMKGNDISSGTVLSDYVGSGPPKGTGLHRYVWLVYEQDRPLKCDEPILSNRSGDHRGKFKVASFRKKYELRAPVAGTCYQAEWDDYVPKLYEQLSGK

How the values were obtained:
[1] = molecular target: T1, phosphatidylethanolamine-binding protein-1 (PEBP1), endogenous in PC12 cells (rat (endogenous in PC12)) (UniProt P31044); assay: co-IP; PC12 cells overexpressing ALOX15-EGFP, untreated or after CORT treatment (200 μM) for 24 h; which protein was precipitated is not told
T1 sequence: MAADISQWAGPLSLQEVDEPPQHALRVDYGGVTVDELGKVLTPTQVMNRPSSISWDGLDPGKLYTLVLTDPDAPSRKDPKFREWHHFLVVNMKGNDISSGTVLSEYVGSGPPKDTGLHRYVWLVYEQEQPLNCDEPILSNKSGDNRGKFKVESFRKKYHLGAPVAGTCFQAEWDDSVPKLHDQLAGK

[2] = molecular target: T2, phosphatidylethanolamine-binding protein-1 (PEBP1), endogenous in mouse midbrain (mouse (endogenous in midbrain)) (UniProt P70296); assay: co-IP; midbrain of A53T mice, untreated or stressed, with or without Fer-1; A53T-AAV mice after stress or leonurine; which protein was precipitated is not told
T2 sequence: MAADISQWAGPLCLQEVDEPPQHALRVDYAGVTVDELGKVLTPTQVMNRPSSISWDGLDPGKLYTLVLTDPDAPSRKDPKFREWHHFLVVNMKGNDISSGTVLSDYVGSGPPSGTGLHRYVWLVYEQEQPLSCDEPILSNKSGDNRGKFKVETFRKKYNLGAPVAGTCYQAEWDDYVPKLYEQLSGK

[3] = molecular target: PEBP1-HA (phosphatidylethanolamine-binding protein-1), overexpressed in HEK-293 cells (UniProt P30086); assay: co-IP; HEK-293 cells overexpressing ALOX15-EGFP and PEBP1-HA; CORT 200 μM, leonurine 50 μM

B1: ALOX15-EGFP (15-lipoxygenase-1), overexpressed in PC12 cells (enzyme, UniProt P16050 1-662)
chain: MGLYRIRVSTGASLYAGSNNQVQLWLVGQHGEAALGKRLWPARGKETELKVEVPEYLGPLLFVKLRKRHLLKDDAWFCNWISVQGPGAGDEVRFPCYRWVEGNGVLSLPEGTGRTVGEDPQGLFQKHREEELEERRKLYRWGNWKDGLILNMAGAKLYDLPVDERFLEDKRVDFEVSLAKGLADLAIKDSLNVLTCWKDLDDFNRIFWCGQSKLAERVRDSWKEDALFGYQFLNGANPVVLRRSAHLPARLVFPPGMEELQAQLEKELEGGTLFEADFSLLDGIKANVILCSQQHLAAPLVMLKLQPDGKLLPMVIQLQLPRTGSPPPPLFLPTDPPMAWLLAKCWVRSSDFQLHELQSHLLRGHLMAEVIVVATMRCLPSIHPIFKLIIPHLRYTLEINVRARTGLVSDMGIFDQIMSTGGGGHVQLLKQAGAFLTYSSFCPPDDLADRGLLGVKSSFYAQDALRLWEIIYRYVEGIVSLHYKTDVAVKDDPELQTWCREITEIGLQGAQDRGFPVSLQARDQVCHFVTMCIFTCTGQHASVHLGQLDWYSWVPNAPCTMRLPPPTTKDATLETVMATLPNFHQASLQMSITWQLGRRQPVMVAVGQHEEEYFSGPEPKAVLKKFREELAALDKEIEIRNAKLDMPYEYLRPSVVENSVAI
- binding [1]: binds

B2: 15-lipoxygenase-1 (ALOX15), endogenous in mouse midbrain (enzyme, UniProt P39654 1-663)
chain: MGVYRIRVSTGDSVYAGSNNEVYLWLIGQHGEASLGKLFRPCRNSEAEFKVDVSEYLGPLLFVRVQKWHYLKEDAWFCNWISVKGPGDQGSEYTFPCYRWVQGTSILNLPEGTGCTVVEDSQGLFRNHREEELEERRSLYRWGNWKDGTILNVAATSISDLPVDQRFREDKRLEFEASQVLGTMDTVINFPKNTVTCWKSLDDFNYVFKSGHTKMAERVRNSWKEDAFFGYQFLNGANPMVLKRSTCLPARLVFPPGMEKLQAQLDEELKKGTLFEADFFLLDGIKANVILCSQQYLAAPLVMLKLQPDGQLLPIAIQLELPKTGSTPPPIFTPLDPPMDWLLAKCWVRSSDLQLHELQAHLLRGHLVAEVFAVATMRCLPSVHPVFKLLVPHLLYTMEINVRARSDLISERGFFDKVMSTGGGGHLDLLKQAGAFLTYSSLCPPDDLAERGLLDIDTCFYAKDALQLWQVMNRYVVGMFDLYYKTDQAVQDDYELQSWCQEITEIGLQGAQDRGFPTSLQSRAQACHFITMCIFTCTAQHSSIHLGQLDWFYWVPNAPCTMRLPPPKTKDATMEKLMATLPNPNQSTLQINVVWLLGRRQAVMVPLGQHSEEHFPNPEAKAVLKKFREELAALDKEIEIRNKSLDIPYEYLRPSLVENSVAI
- binding [2]: binds

B3: ALOX15-EGFP (15-lipoxygenase-1), overexpressed in HEK-293 cells (enzyme, UniProt P16050 1-662)
chain: B1 chain
- binding [3]: binds
